No constants are given. Whether binding was seen depends on the method and setting. Some entries that bind do so weakly or less than the wild type.
What follows are binders tested against NKp30 on NK cells (UniProt O14931) (assay: flow cytometry on NK cells, antibody titrated from 40 μg/mL, FITC anti-mouse secondary).

Sequences of proteins named here, by UniProt entry; tags and fusion partners are left off. Residues count along the entry.
UniProt O14931, residues 19-201: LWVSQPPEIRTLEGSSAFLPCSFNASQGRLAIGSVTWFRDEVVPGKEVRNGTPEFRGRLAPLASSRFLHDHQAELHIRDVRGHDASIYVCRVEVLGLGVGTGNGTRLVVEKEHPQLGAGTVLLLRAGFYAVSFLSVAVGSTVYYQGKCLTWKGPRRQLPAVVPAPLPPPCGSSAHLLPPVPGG

| binding | Binder |
| --- | --- |
| binds | 抗体6 (antibody, V domains shown) VH: QVQLQQSGAELVRPGVSVKISCKGSGYTFTDYAMHWVKQSHAKSLEWIGIISTYYGDASYNQKFKGKATMTVDKSSSTAYMELARLTSEDSAIYYCARDYDNRYAAMDYWGQGTSVTVSS VL: DIVMTQAAFSNPVTLGTSASISCRSSKSLLHSNGITYLYWYLQKPGQSPQLLIYQMSNLASGVPDRFSSSGSGTDFTLRISRVEAEDVGVYYCAQNLELPYTFGGGTKLEIK |
| binds | 抗体4 (antibody, V domains shown) VH: EVQLVESGGGLVKPGGSLKLSCAASGFTFSDYGMSWIRQTPEKRLEWVASISSGGTYTYYPDSVKGRFTISRDSAKNTLYLQMNSLRSEDTAMYYCARRDGYYSVEYWGQGTSVTVSS VL: QIVLTQSPAIMSASPGGEVTMTCSASSSVSFMHWYQQKSGTSPKRWIFDTSKLASGVPTRFSGSGSGTSYSLTISSMEAEDAATYYCQQWTTNPPTFGGGTKLEIK |
| binds | 抗体5 (antibody, V domains shown) VH: VLILKESGGGLVKPGGSLKLSCAASGFAFSSYDMSWVRQTPEKRLEWVATISSGGSYTYYPDSVKGRFTISRDNARNTLYLQMSSLRSEDTALYYCARHFGDHDGYVMDYWGQGTSVIVSS VL: DIVMTQSPSSLAMSLGQKVTMSCKSSQSLLNSSNQKSNLAWYQQKPGQSPKLLVYFASTRESGVPDRFIGSGSGTDFSLTIRSVQAEDLADYFCQQHYSTPFTFGSGTKLEIK |

Further lines, the binder ahead of its results:

| Binder | binding |
| --- | --- |
| 抗体3 (antibody, V domains shown) VH: QGQLQQSGAEVMKPGASVKISCKANGHTFGSYWIEWIKQRPGHGLEWIGEILPGSGSKKYNEKFEGKATFTEETSSNTAYMELTSLTSEDSAVYYCSRGGYYGSRFAYWGQGTLVTVSA VL: DVVLTQTPLSLPVNIGDQASISCKSTKSLLNSDGFTYLDWYLQKPGQSPQLLIYLVSNRFSGVPDRFSGSGSGTDFTLKISRVEAEDLGVYYCFQSNYLPFTFGSGTKLEIK | binds |
| 抗体1 (antibody, V domains shown) VH: QVQLQQPGAELVKPGASVKLSCKASGYTFTSYWMEWVKLRPGQGFDWIGEINPSNGGTNYNEKFKRKAILTVDKSSSAAYMQLSGLTSEDSAVYYCTIGGDYAWFAYWGQGTLVTVSA VL: DIKMTQSPSSMYASLGERVTITCKASQDIKSYLSWYQQKPWKSPKTLIFYATSLADGVPSRFSASGSGQDYSLTISSLESDDTATYYCLQHGESPYTFGGGTKLEIK | binds |
| 抗体2 (antibody, V domains shown) VH: EVQLQQFGAELVKPGASVKISCKASGYTFTDYNMDWVKQSHGKSLEWIAYINPNYEITTYNQKFKGKATLTVDKSSSTAYMELRSLTSEDTAVYYCARGRGGYDPAMDYWGQGTSVTVSS VL: SIVMTQTPKFLLVSAGDRVTITCKASQSVSNDVTWSQQKPGQSPKLLIYYASNRYTGVPDRFTGSGYGTDFTFTISTVQAEDLAVYLCQQDNSTPPTFGAGTKLELK | binds |

From patent CN115124620A
